In paper PMC7058624 one finds binding data, which are given here for one molecule.

No constants are given. Whether binding was seen depends on the method and setting. Binding seen in cells or lysates may run through a third protein. Some entries that bind do so weakly or less than the wild type. Where a sequence is shown, tags or fusion partners need not be part of it.

The test concerns the target T1, HA-Id3 (mouse full-length Id3 fused to a Hemagglutinin tag) (mouse), P41133.
T1 chain: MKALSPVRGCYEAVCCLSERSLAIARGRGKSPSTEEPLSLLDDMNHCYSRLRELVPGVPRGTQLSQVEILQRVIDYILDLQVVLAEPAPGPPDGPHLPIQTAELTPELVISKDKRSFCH
The experiment in a line: co-IP; HA-Tag Co-IP kit (Thermo Fisher); WT mouse BMMSCs transfected with vector or HA-Id3 plasmid, cold RIPA lysate, anti-HA agarose, 4 °C overnight, washed with TBS-T, eluate analysed by western blot. The note with it: remark: other sources report otherwise. On the technique in general: In western blotting, separated proteins are transferred to a membrane and probed.

B1: E2A (basic helix-loop-helix protein E2A), P15806 1-651 (protein)
chain: MMNQSQRMAPVGSDKELSDLLDFSMMFPLPVANGKSRPASLGGTQFAGSGLEDRPSSGSWGSSDQNSSSFDPSRTYSEGAHFSDSHSSLPPSTFLGAGLGGKGSERNAYATFGRDTSVGTLSQAGFLPGELSLSSPGPLSPSGIKSSSQYYPSFPSNPRRRAADGGLDTQPKKVRKVPPGLPSSVYPPSSGDSYSRDAAAYPSAKTPSSAYPSPFYVADGSLHPSAELWSTPSQVGFGPMLGDGSSPLPLAPGSSSVGSGTFGGLQQQDRMGYQLHGSEVNGSLPAVSSFSAAPGTYSGTSGHTPPVSGAAAESLLGTRGTTASSSGDALGKALASIYSPDHSSNNFSPSPSTPVGSPQGLPGTSQWPRAGAPSALSPNYDAGLHGLSKMEDRLDEAIHVLRSHAVGTASDLHGLLPGHGALTTSFTGPMSLGGRHAGLVGGSHPEEGLTSGASLLHNHASLPSQPSSLPDLSQRPPDSYSGLGRAGTTAGASEIKREEKEDEEIASVADAEEDKKDLKVPRTRTSPDEDEDDLLPPEQKAEREKERRVANNARERLRVRDINEAFKELGRMCQLHLSSEKPQTKLLILHQAVAVILSLEQQVRERNLNPKAACLKRREEEKVSGVVGDPQLALSAAHPGLGEAHNPAGHL
For B1, the binding entry is listed as “binds”.
